In publication PMC12040169 (PLOS Biology, 2025):
The other results are listed elsewhere or left out.

test system: T1, CTL2-GFP (C. trachomatis L2/434/Bu, GFP-expressing); parameters: species or system HeLa; Intracellular C. trachomatis growth in HeLa cells, bulk GFP fluorescence relative to DMSO; conditions: bulk GFP, single well; 28.5 h, 10 µM; inhibitor
T1 construct: L2/434/Bu, GFP-expressing

Row | Compound | % of control remaining [%]
1 | CC(C)(C)c1cc(NC(=O)C(C)(C)S(=O)(=O)c2ccc(C(F)(F)F)cn2)no1 [CBK006849] | 101.512
2 | Cc1cc(C(=O)N2CCCCCC2c2nn(C)cc2Cl)on1 (stereo not shown) [CBK285121] | 124.238
3 | COc1ccc(C(=O)Nc2ccc(N3CCOCC3)c(Cl)c2)cc1[N+](=O)[O-] [CBK263894] | 110.726
4 | O=C(OCc1ccc(Br)cc1)c1ccccc1S(=O)(=O)c1ccccc1[N+](=O)[O-] [CBK265718] | 156.123
5 | O=C(O)CCC(=O)Nc1ccccc1C(=O)N1CCCCCC1 [CBK269863] | 142.723
6 | CN(C)CCN1CCN(c2nc(-c3cccc(C(N)=O)c3)cnc2N)CC1 [CBK063537] | 96.6676
7 | Cc1cc(CNC(=O)COc2cc(Cl)ccc2Cl)c2ccccc2n1 [CBK269788] | 119.814
8 | CC(C)(C)c1ccnc(N[C@H]2CO[C@H]3[C@@H]2OC[C@@H]3NC(=O)c2cccs2)n1 [CBK289520] | 115.952
9 | N=C(N)NS(=O)(=O)c1ccc(N/C=C\C(=O)c2ccc3ccccc3c2)cc1 [CBK263374] | 49.3534
10 | N=C(Nc1nc(=O)cc(CSc2ccc(Cl)cc2)[nH]1)Nc1cccc2ccccc12 [CBK266504] | 167.481
11 | CC(=O)Nc1ccc(-n2cc(COC3CCN(C(=O)OC(C)(C)C)CC3)nn2)cc1 [CBK149481] | 114.081
12 | CCc1nc2c(Oc3nc4ccccc4s3)cccn2c1N(C=O)Cc1ccc(OC)cc1 [CBK147819] | 106.388
13 | O=C(O)CNC(=O)Cn1ccc2cc(OCc3ccccc3)ccc21 [CBK286665] | 135.411
14 | CCn1cc(C(=O)NC2CC3(CCCC3)Oc3ccccc32)c(C)n1 (stereo not shown) [CBK282340] | 117.705
15 | COc1ccc(C)c(NC(=O)NCCc2c[nH]cn2)c1 [CBK269992] | 137.658
16 | Cc1nc2c(c(N(C)C)n1)CCN(C(=O)c1cnn(C(C)C)c1)C2 [CBK307083] | 109.876
17 | COc1ccc(C2N(N3C(=O)CC(=O)NC3=O)C(=O)CS2(=O)=O)cc1OC (stereo not shown) [CBK012702] | 74.4732
18 | CC(CCc1ccccc1)NC(=O)CCC(=O)O (stereo not shown) [CBK267918] | 129.769
19 | CN(Cc1ccccc1NCCn1c(=O)oc2ccccc21)C1CCCCC1 [CBK296678] | 104.664
20 | O=C(COc1cc(Cl)c(Cl)cc1Cl)N1CCN(c2ccc([N+](=O)[O-])cc2)CC1 [CBK263783] | 100
21 | O=c1c2ccccc2nc(CSc2ncnc3[nH]cnc23)n1-c1cccc(C(F)(F)F)c1 [CBK264991] | 100
22 | Cc1nnc(-c2cccc(S(=O)(=O)n3ccn(-c4cccc(C(F)(F)F)c4)c3=O)c2)o1 [CBK106592] | 160.322
23 | C=CCn1c(Cc2csc(NC(=O)c3cc4ccccc4o3)n2)n[nH]c1=S [CBK295329] | 173.083
24 | O=C(NC1Cc2ccccc2C1)c1ccc2ccccc2n1 [CBK200355] | 123.177
25 | C=C(C)CN1CCN(C(C(=O)O)c2c[nH]c3cc(F)ccc23)CC1 (stereo not shown) [CBK286835] | 125.602

Single values from above:
% of control remaining [%], C=CCn1c(Cc2csc(NC(=O)c3cc4ccccc4o3)n2)n[nH]c1=S [CBK295329] reads 173.083
% of control remaining [%], O=C(O)CNC(=O)Cn1ccc2cc(OCc3ccccc3)ccc21 [CBK286665] reads 135.411
% of control remaining [%], O=C(O)CCC(=O)Nc1ccccc1C(=O)N1CCCCCC1 [CBK269863] reads 142.723
% of control remaining [%], O=c1c2ccccc2nc(CSc2ncnc3[nH]cnc23)n1-c1cccc(C(F)(F)F)c1 [CBK264991] reads 100

(next part)

Row | Compound | % of control remaining [%]
26 | Cc1ccc(C2(CNC(=O)CCc3ccncc3)CCOCC2)cc1 [CBK281574] | 109.886
27 | Cc1cc(CN2CCN(CCc3ccccc3)CC2)no1 [CBK126426] | 125.883
28 | O=C(O)c1ccc(CSc2nnc(-c3ccncc3)o2)cc1 [CBK266352] | 201.785
29 | Cc1cc(C)c(NC(N)=O)c(C)c1 [CBK086399] | 144.659
30 | O=C(NCc1c(Cl)cccc1Cl)N1CCCCC1CO (stereo not shown) [CBK156184] | 108.955
31 | Cc1ccc(C(=O)O)cc1NS(=O)(=O)c1ccc2c(c1)OCCO2 [CBK297497] | 135.493
32 | O=C(C1CCCC1)N1CC(n2nc(-c3cccs3)ccc2=O)C1 [CBK283345] | 113.092
33 | Cc1nn2c(=O)[nH]ncc2c1-c1ccccc1C(=O)N(C(C)C)C(C)C [CBK307043] | 92.7739
34 | O=C(c1ccc(Oc2ccccc2)cc1)N1CCC2(CCN(Cc3ccccc3)C2)C1 (stereo not shown) [CBK136833] | 137.945
35 | O=C(Cc1c[nH]c(=O)[nH]c1=O)Nc1ncc(Cc2ccc(F)cc2)s1 [CBK285674] | 118.93
36 | CCC(=O)N1CCN(c2nc3ccc(OC)cc3s2)CC1 [CBK287721] | 104.097
37 | CCCn1cc(CN2CCC(O)(c3ccc(C)cc3)CC2)cn1 [CBK282737] | 118.807
38 | O=C(O)c1ccc(NS(=O)(=O)c2cc(C(=O)O)ccc2Br)cc1 [CBK113164] | 120.104
39 | CC(=O)c1ccc(NC(=O)CSc2nnc(-c3ccc4ccccc4n3)s2)cc1 [CBK269205] | 109.255
40 | CCOC(=O)c1cnc2ccc(C(CCOCc3ccccc3)OCc3ccccc3)cc2c1O (stereo not shown) [CBK018405] | 128.599
41 | Cc1ccc2c(c1)C1(CC(=O)N(CC(=O)O)C1=O)C(=O)N2C (stereo not shown) [CBK076104] | 111.656
42 | CCC(C)(C)c1ccc(S(=O)(=O)N2CCCN(Cc3cccc4c3OCO4)CC2)cc1 [CBK062872] | 104.401
43 | Cn1nc(C(=O)N2Cc3cnn(Cc4ccc(F)cc4)c3C2)ccc1=O [CBK306855] | 151.641
44 | O=C(CSc1nnc2ccc(-c3ccccc3)nn12)NCc1ccccc1 [CBK287677] | 81.6965
45 | C=CCNC(=O)C1CN(C)CC12CCc1ccccc1C(=O)N2 (stereo not shown) [CBK282401] | 158.323
46 | COc1ccc2[nH]cc(CC(=O)N3CCCC4(CCN(C(=O)c5cc(F)c(F)cc5F)C4)C3)c2c1 (stereo not shown) [CBK131562] | 136.77
47 | CCc1[nH]c2ccc(C(=O)NC3CCCOC3)cc2c1C (stereo not shown) [CBK283247] | 127.44
48 | COc1ccc(C(Nc2ccnc(OC)c2C#N)[C@H]2C[C@@H](O)C2)cn1 (stereo partly shown) [CBK306980] | 117.286
49 | O=C(O)CC(NCc1ccccc1)C(=O)Nc1cccc(F)c1 (stereo not shown) [CBK266956] | 139.482
